For data set [1], the target named is Transferrin receptor 1 (TfR, CD71) (Homo sapiens) (UniProt P02786). As to the kind of experiment: flow cytometry cell binding. The conditions noted are these: PBS, 4.5 g/L glucose, 5 mM MgCl2, 1 mg/mL BSA, 0.1 mg/mL herring sperm DNA, 30 min on ice (4 C), intact cells.
Data set [2] has the same target. As to the kind of experiment: competition (flow cytometry). The conditions noted are these: HeLa cells, 200 nM aptamer, PBS, 4.5 g/L glucose, 5 mM MgCl2, 1 mg/mL BSA, 0.1 mg/mL herring sperm DNA, 30 min on ice (4 C), intact cells, protein on the cell surface, label: 5' fluorophore (FITC, FAM, Cy5 or AF647), folded or branched DNA.
Data set [3] has as its target Transferrin receptor (mouse, 4T1 cells) (Mus musculus) (UniProt Q62351). As to the kind of experiment: flow cytometry cell binding. Particulars: 4T1 cells; PBS, 4.5 g/L glucose, 5 mM MgCl2, 1 mg/mL BSA, 0.1 mg/mL herring sperm DNA; 30 min on ice (4 C); intact cells, flow cytometry; protein on the cell surface; label: 5' fluorophore (FITC, FAM, Cy5 or AF647); folded or branched DNA. (In flow cytometry, cells or beads pass a laser one at a time.)

Protein sequences, listed by entry. Tags and fused reporters are not part of them.
UniProt Q62351, whole entry: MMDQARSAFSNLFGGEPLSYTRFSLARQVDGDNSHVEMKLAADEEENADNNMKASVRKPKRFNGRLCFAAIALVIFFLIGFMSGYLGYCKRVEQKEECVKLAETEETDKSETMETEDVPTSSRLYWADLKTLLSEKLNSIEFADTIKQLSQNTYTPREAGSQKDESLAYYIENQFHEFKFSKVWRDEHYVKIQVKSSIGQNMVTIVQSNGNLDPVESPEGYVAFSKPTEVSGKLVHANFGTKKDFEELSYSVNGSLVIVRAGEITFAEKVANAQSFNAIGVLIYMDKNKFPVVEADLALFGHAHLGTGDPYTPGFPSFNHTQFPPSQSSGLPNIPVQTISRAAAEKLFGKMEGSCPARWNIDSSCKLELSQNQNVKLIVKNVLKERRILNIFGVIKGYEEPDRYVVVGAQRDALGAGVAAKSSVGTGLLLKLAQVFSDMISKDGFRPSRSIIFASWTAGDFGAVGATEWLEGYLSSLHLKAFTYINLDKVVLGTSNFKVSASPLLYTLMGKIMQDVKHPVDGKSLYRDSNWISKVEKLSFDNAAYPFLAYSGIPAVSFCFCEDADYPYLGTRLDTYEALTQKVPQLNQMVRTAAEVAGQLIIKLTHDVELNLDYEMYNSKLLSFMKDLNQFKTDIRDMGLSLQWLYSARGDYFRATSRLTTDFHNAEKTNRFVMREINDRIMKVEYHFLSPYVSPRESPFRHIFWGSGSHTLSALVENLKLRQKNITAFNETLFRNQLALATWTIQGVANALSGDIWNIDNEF
UniProt Q07891, whole entry: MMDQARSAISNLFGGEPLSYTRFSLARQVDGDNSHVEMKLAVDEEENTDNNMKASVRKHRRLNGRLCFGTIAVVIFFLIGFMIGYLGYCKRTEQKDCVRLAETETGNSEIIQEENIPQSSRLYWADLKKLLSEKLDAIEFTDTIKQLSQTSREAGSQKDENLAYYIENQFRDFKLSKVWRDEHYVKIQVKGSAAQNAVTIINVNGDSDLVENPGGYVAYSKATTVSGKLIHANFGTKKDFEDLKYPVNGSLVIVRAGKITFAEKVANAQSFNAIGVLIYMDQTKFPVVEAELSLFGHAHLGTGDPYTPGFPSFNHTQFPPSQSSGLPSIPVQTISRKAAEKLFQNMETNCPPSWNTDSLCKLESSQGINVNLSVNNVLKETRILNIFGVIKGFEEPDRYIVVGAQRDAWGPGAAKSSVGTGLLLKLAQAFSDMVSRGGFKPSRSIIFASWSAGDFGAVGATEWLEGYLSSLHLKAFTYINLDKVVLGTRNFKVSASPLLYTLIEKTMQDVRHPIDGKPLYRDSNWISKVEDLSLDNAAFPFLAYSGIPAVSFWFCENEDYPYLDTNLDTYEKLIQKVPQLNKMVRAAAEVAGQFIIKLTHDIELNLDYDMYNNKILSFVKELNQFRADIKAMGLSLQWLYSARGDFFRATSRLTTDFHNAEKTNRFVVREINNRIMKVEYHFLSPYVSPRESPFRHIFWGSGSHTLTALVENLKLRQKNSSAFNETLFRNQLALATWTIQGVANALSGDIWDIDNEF
UniProt Q99376, whole entry: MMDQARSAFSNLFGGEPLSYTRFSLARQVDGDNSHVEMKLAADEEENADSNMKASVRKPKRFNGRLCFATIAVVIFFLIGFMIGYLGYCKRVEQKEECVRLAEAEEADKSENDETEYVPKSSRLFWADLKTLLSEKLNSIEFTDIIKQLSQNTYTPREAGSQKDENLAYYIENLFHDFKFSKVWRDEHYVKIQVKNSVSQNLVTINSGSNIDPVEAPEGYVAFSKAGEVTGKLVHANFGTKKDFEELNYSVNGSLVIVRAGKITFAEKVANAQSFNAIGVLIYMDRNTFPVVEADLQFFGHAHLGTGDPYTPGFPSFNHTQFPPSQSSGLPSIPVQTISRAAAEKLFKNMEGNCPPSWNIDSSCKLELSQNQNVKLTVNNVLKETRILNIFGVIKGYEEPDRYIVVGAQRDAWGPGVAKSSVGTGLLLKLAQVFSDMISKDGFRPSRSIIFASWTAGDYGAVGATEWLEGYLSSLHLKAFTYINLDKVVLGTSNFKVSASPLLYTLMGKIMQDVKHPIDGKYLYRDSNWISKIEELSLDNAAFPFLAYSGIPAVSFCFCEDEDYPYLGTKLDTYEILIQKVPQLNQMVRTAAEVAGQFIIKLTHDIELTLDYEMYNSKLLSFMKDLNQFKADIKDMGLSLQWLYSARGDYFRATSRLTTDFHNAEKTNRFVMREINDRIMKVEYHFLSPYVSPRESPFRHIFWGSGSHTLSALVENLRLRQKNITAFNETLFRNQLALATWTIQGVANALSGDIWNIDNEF

For data set [4], the target named is Transferrin receptor (Chinese hamster, CHO-K1 cells) (Cricetulus griseus) (UniProt Q07891). As to the kind of experiment: flow cytometry cell binding. Particulars: CHO-K1 cells; PBS, 4.5 g/L glucose, 5 mM MgCl2, 1 mg/mL BSA, 0.1 mg/mL herring sperm DNA; 30 min on ice (4 C); intact cells, flow cytometry; protein on the cell surface; label: 5' fluorophore (FITC, FAM, Cy5 or AF647); folded or branched DNA.

The target in data set [5] is Transferrin receptor (rat, PC-12 cells) (Rattus norvegicus) (UniProt Q99376). Description: flow cytometry cell binding. Particulars: PC-12 cells; PBS, 4.5 g/L glucose, 5 mM MgCl2, 1 mg/mL BSA, 0.1 mg/mL herring sperm DNA; 30 min on ice (4 C); intact cells, flow cytometry; protein on the cell surface; label: 5' fluorophore (FITC, FAM, Cy5 or AF647); folded or branched DNA.

Setting [6] is: HCT-8T cells, end truncation, flow cytometry, protein on the cell surface, label: 5' fluorophore, folded or branched DNA.

From article PMC8396340 come the findings set out here.

For at least one entry, the source does not settle the construct or the ends of the probe. Results from cells or extracts need not show a direct contact. No signal at the amounts used counts as a negative. For part of these data: At least one verdict rests on a figure or table, not on a statement of the authors. For part of these data: A weaker result is weaker than the reference pair of the same experiment.

Take “AGAGCAGCGTGGAGGATAGTTGGGGTTTGGCAAGTATTG [ctr sq]”: in data set [1] (negative control, Jurkat and HeLa cells, flow cytometry, protein on the cell surface, label: 5' fluorophore, single-stranded DNA), the binding result is reported as “no binding”.

For “AGGAGCAGCGTGGAGGATAGGGATTCTGTTGGTCGGCTGGTTGGTATCC [HG1-3]”, in data set [1] (setting [6]), the binding result is recorded as “binds”.

On to “AGGAGCAGCGTGGAGGATAGGGATTCTGTTGGTCGGCTGGTTGGTATCCTTAGGGTGTG [HG1-1]”, for which the binding result in data set [1] (setting [6]) is listed as “binds”.

On to “AGGAGCAGCGTGGAGGATGTTGGTCGGCTGGTTGGTATCCTTAGGGTGTG [HG1-2]”, for which, in data set [1] (HCT-8T cells, middle deletion, flow cytometry, protein on the cell surface, label: 5' fluorophore, folded or branched DNA), the binding result is given as “no binding”.

Consider “GGATAGGGATTCTGTTGGTCGGCTGGTTGGTATCC [HG1-9]”, for which the binding result in data set [2] (500 nM bovine transferrin) was “binds”; in data set [2] (500 nM holo-hTf competitor), “no binding”; in data set [1] (EDTA, flow cytometry, protein on the cell …, label: 5' fluorophore (FITC, FAM, Cy5 or AF647), folded or branched DNA), “binds more weakly”; in data set [1] (no MgCl2, flow cytometry, protein on the cell surface, label: 5' fluorophore (FITC, FAM, Cy5 or AF647), folded or branched DNA), “binds more weakly”; in data set [3], “no binding”; in data set [4] it was “no binding”. Also, the binding result in data set [5] is listed as “no binding”.

Consider “GGCGACGGATTCTGTTGGTCGGCTGGTTGGTCGCC [HG1-11]”, for which the binding result in data set [1] (loop L1 mutant, binding lost, flow cytometry, protein on the cell surface, label: 5' fluorophore, folded or branched DNA) is reported as “no binding”.

Consider “GGCGAGGGATTCTGTTGGTCGGCTGGTTGGTCGCC [HG1-10]”, for which the binding result in data set [1] (stem S1 mutant, slightly affected, flow …, protein on the cell surface, label: 5' fluorophore, folded or branched DNA) is given as “binds”.

For “GTGGAGGATAGGGATTCTGTTGGTCGGCTGGTTGGTATCC [HG1-8]”, the binding result in data set [1] (setting [6]) was “binds”.

On to “GTGGAGGATAGGGATTCTGTTGGTCGGCTGGTTGGTATCCTTAGGGTGTG [HG1-4]”, for which the binding result in data set [1] (setting [6]) was “binds”.
